From PMC10393192
These are yes or no findings as the source states them, for the method shown. Some results given as binding are weak or reduced against the parent protein; the word gives no strength. For some assays here: Sequences can lack the tags named with a protein.

The chains behind the UniProt entries cited, without tags or fusion partners.
UniProt P33323: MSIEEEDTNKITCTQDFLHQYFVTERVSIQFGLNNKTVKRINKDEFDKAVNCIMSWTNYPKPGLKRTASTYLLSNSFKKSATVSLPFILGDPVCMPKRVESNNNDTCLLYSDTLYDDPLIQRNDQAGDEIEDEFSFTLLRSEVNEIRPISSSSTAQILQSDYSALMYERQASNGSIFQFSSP

Columns and labels:
[1] = target: T1, Mei4N (residues 1–43 of Mei4) (S. cerevisiae) (UniProt P29467); assay: co-purification after coexpression (cobalt resin + SEC); coexpressed in E. coli BL21(DE3) from a pETDuet-based vector with a 6xHis-SUMO tag; cobalt resin in 500 mM NaCl, tag cleaved with Ulp1, Superdex 200 Increase in 25 mM HEPES-NaOH pH 7.4, 100 mM NaCl; fractions checked by SDS-PAGE
T1 sequence: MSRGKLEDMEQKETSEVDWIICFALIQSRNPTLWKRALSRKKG

[2] = target: T2, Mei4_(13–43) (S. cerevisiae) (UniProt P29467); assay: NMR spectroscopy (HSQC, backbone assignment) of the complex; coexpressed and co-purified complex, uniformly 15N-13C labelled; 25 mM HEPES-NaOH pH 7.4, 100 mM NaCl, 0.5 mM EDTA, 1 mM TCEP, 0.05% NaN3, 25°C; both purified
T2 sequence: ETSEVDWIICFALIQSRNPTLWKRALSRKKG

[3] = target: Rec114C (residues 375–428 of yeast Rec114) (S. cerevisiae) (UniProt P32841); assay: as above
[4] = target: T1, Mei4N (residues 1–43 of Mei4) (S. cerevisiae); assay: as above
[5] = target: T3, Mei4N with a C-terminal ybbR tag (S. cerevisiae) (UniProt P29467); assay: as above
T3 sequence: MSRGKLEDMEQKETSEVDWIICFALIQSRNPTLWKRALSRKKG

[6] = target: T2, Mei4_(13–43) (S. cerevisiae); assay: NMR spectroscopy (HSQC, backbone assignment) of the complex; coexpressed and co-purified complex, 470 µM, uniformly 15N-13C labelled; 25 mM NaHPO4 pH 6.1, 100 mM NaCl, 0.5 mM EDTA, 1 mM TCEP, 0.05% NaN3, 5% D2O; both purified
[7] = target: T2, Mei4_(13–43) (S. cerevisiae); assay: co-purification after coexpression (cobalt resin + SEC); coexpressed in E. coli BL21(DE3) from a pETDuet-based vector with a 6xHis-SUMO tag; cobalt resin in 500 mM NaCl, tag cleaved with Ulp1, Superdex 200 Increase in 25 mM HEPES-NaOH pH 7.4, 100 mM NaCl; fractions checked by SDS-PAGE
[8] = target: T4, mMEI4N (mouse MEI4 residues 1–42) (mouse) (UniProt Q8BRM6); assay: as above
T4 sequence: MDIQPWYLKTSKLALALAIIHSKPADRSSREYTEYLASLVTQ

[9] = target: LexA–Rec104 (S. cerevisiae) (UniProt P33323); assay: two-hybrid; Gal4AD-Rec114 with LexA fusions of the partners in diploid yeast; quantitative β-galactosidase assay with ONPG
[10] = target: T5, LexA DNA binding domain fused to Mei4 (S. cerevisiae) (UniProt P29467); assay: as above
T5 sequence: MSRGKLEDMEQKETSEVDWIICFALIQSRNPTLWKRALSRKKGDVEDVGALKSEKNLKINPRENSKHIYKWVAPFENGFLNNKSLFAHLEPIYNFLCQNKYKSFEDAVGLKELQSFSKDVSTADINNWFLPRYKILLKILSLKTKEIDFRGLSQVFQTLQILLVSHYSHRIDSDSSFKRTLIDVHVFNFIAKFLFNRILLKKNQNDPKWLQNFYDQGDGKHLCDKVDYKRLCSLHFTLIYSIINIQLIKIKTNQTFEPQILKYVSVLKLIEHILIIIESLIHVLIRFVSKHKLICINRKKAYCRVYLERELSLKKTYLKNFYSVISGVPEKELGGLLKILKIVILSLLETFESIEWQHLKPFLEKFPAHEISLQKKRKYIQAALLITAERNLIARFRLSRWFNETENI

[11] = target: T6, LexA–Rec102 (S. cerevisiae) (UniProt Q02721); assay: as above
T6 sequence: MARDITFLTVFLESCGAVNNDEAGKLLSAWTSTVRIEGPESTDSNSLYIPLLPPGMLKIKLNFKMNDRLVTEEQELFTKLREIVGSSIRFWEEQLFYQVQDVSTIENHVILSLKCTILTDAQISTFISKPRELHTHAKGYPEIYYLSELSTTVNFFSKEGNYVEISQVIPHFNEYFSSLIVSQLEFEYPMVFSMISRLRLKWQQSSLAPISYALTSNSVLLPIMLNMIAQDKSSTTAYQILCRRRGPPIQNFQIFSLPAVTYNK

[12] = target: T7, Mei4_(1–90) (S. cerevisiae) (UniProt P29467); assay: co-purification after coexpression (cobalt resin + SEC); coexpressed in E. coli BL21(DE3) from a pETDuet-based vector with a 6xHis-SUMO tag; cobalt resin in 500 mM NaCl, tag cleaved with Ulp1, Superdex 200 Increase in 25 mM HEPES-NaOH pH 7.4, 100 mM NaCl; fractions checked by SDS-PAGE
T7 sequence: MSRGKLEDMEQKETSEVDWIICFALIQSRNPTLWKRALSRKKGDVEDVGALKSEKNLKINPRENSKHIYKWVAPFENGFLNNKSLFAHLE

B1: Rec114C (residues 375–428 of yeast Rec114) (domain or fragment, UniProt P32841 375-428)
chain: EASPSEGLTIRVKNVNRNASRKISKRLIKEKLKDEEFMKWVNKVETVLNKMFEK
[1]
  binding: binds
[2]
  binding: binds
[3]
  binding: binds
[4]
  binding: binds
[5]
  binding: binds

## NVNRNASRKISKRLIKEKLKDEEFMKWVNKVETVLNKMFEK (domain or fragment, UniProt P32841 388-428) [Rec114_(388–428)]
[6]
  binding: binds
[7]
  binding: binds
[1]
  binding: binds
[4]
  binding: binds

## NVNRNASAAISKRLIKEKLKDEEFMKWVNKVETVLNKMFEK (domain or fragment, UniProt P32841 388-428) [Rec114_(388–428) R395A/K396A]
[1]
  binding: binds

## NVNRNASRKISAALIKEKLKDEEFMKWVNKVETVLNKMFEK (domain or fragment, UniProt P32841 388-428) [Rec114_(388–428) K399A/R400A]
[1]
  binding: binds

## NVNRNASRKISKRLIAEKLADEEFMKWVNKVETVLNKMFEK (domain or fragment, UniProt P32841 388-428) [Rec114_(388–428) K403A/K407A]
[1]
  binding: binds

## NVNRNASRKISKRLIKEKLKDEEFMKWVNAVETVLNAMFEK (domain or fragment, UniProt P32841 388-428) [Rec114_(388–428) K417A/K424A]
[1]
  binding: binds

B2: mREC114C (mouse REC114 residues 203–259) (domain or fragment, UniProt Q9CWH4 203-259)
chain: RAQSILAPEKLTLAYEGSSWGTEELGPFLRLCLMDQNFPAFVEEVEKELKKITGLRN
[8]
  binding: binds

B3: Gal4-activating domain (AD) fused to Rec114 (protein, UniProt P32841 1-428)
chain: MYEYCSVVIKKYSKYTIPSFAPNGFQSMLEPPQIDKWQHLSANCTLQFRVLLMDSRQILINVVLNNSTLLENIRLPLGDNQDLIQFSCKSPIISCKYISEEFGPRMLRRFQMNLPNDVEFNRTVVSLKNLNFVLRTARTSIAQSTITSQVQGNNNGTKVCFTEGPKVSSYTNPNTQFQTQNMIMDFSQRYQEESERESNNRSNITLPHDSIQIAQQIWPNTDLNVVQSSQDLNTPMATQTVLGRPESLIVQPLEVSQSPPNTTNCLPNAENKKKKVDTTSDFTSRKEIALCKTGLLETIHIPKERESQMQSVTGLDATPTIIWSPGKDNTAKKNTSNKKNIDDKLTNPQKSGNTHTPDRNKEVLPNGTLNETRKEASPSEGLTIRVKNVNRNASRKISKRLIKEKLKDEEFMKWVNKVETVLNKMFEK
[9]
  binding: binds
[10]
  binding: binds
[11]
  binding: binds

B4: Rec114 K405E (Gal4AD fusion) (protein, UniProt P32841 1-428)
chain: MYEYCSVVIKKYSKYTIPSFAPNGFQSMLEPPQIDKWQHLSANCTLQFRVLLMDSRQILINVVLNNSTLLENIRLPLGDNQDLIQFSCKSPIISCKYISEEFGPRMLRRFQMNLPNDVEFNRTVVSLKNLNFVLRTARTSIAQSTITSQVQGNNNGTKVCFTEGPKVSSYTNPNTQFQTQNMIMDFSQRYQEESERESNNRSNITLPHDSIQIAQQIWPNTDLNVVQSSQDLNTPMATQTVLGRPESLIVQPLEVSQSPPNTTNCLPNAENKKKKVDTTSDFTSRKEIALCKTGLLETIHIPKERESQMQSVTGLDATPTIIWSPGKDNTAKKNTSNKKNIDDKLTNPQKSGNTHTPDRNKEVLPNGTLNETRKEASPSEGLTIRVKNVNRNASRKISKRLIKEELKDEEFMKWVNKVETVLNKMFEK
[10]
  binding: binds

B5: Rec114 I402A (Gal4AD fusion) (protein, UniProt P32841 1-428)
chain: MYEYCSVVIKKYSKYTIPSFAPNGFQSMLEPPQIDKWQHLSANCTLQFRVLLMDSRQILINVVLNNSTLLENIRLPLGDNQDLIQFSCKSPIISCKYISEEFGPRMLRRFQMNLPNDVEFNRTVVSLKNLNFVLRTARTSIAQSTITSQVQGNNNGTKVCFTEGPKVSSYTNPNTQFQTQNMIMDFSQRYQEESERESNNRSNITLPHDSIQIAQQIWPNTDLNVVQSSQDLNTPMATQTVLGRPESLIVQPLEVSQSPPNTTNCLPNAENKKKKVDTTSDFTSRKEIALCKTGLLETIHIPKERESQMQSVTGLDATPTIIWSPGKDNTAKKNTSNKKNIDDKLTNPQKSGNTHTPDRNKEVLPNGTLNETRKEASPSEGLTIRVKNVNRNASRKISKRLAKEKLKDEEFMKWVNKVETVLNKMFEK
[10]
  binding: binds

B6: Rec114 N416A/E419A/N423A (Gal4AD fusion) (protein, UniProt P32841 1-428)
chain: MYEYCSVVIKKYSKYTIPSFAPNGFQSMLEPPQIDKWQHLSANCTLQFRVLLMDSRQILINVVLNNSTLLENIRLPLGDNQDLIQFSCKSPIISCKYISEEFGPRMLRRFQMNLPNDVEFNRTVVSLKNLNFVLRTARTSIAQSTITSQVQGNNNGTKVCFTEGPKVSSYTNPNTQFQTQNMIMDFSQRYQEESERESNNRSNITLPHDSIQIAQQIWPNTDLNVVQSSQDLNTPMATQTVLGRPESLIVQPLEVSQSPPNTTNCLPNAENKKKKVDTTSDFTSRKEIALCKTGLLETIHIPKERESQMQSVTGLDATPTIIWSPGKDNTAKKNTSNKKNIDDKLTNPQKSGNTHTPDRNKEVLPNGTLNETRKEASPSEGLTIRVKNVNRNASRKISKRLIKEKLKDEEFMKWVAKVATVLAKMFEK
[10]
  binding: binds

B7: Rec114-4KR (Gal4AD fusion) (protein, UniProt P32841 1-428)
chain: MYEYCSVVIKKYSKYTIPSFAPNGFQSMLEPPQIDKWQHLSANCTLQFRVLLMDSRQILINVVLNNSTLLENIRLPLGDNQDLIQFSCKSPIISCKYISEEFGPRMLRRFQMNLPNDVEFNRTVVSLKNLNFVLRTARTSIAQSTITSQVQGNNNGTKVCFTEGPKVSSYTNPNTQFQTQNMIMDFSQRYQEESERESNNRSNITLPHDSIQIAQQIWPNTDLNVVQSSQDLNTPMATQTVLGRPESLIVQPLEVSQSPPNTTNCLPNAENKKKKVDTTSDFTSRKEIALCKTGLLETIHIPKERESQMQSVTGLDATPTIIWSPGKDNTAKKNTSNKKNIDDKLTNPQKSGNTHTPDRNKEVLPNGTLNETRKEASPSEGLTIRVKNVNRNASAAISAALIKEKLKDEEFMKWVNKVETVLNKMFEK
[9]
  binding: binds
[11]
  binding: binds

B8: Rec114_(325–428) (domain or fragment, UniProt P32841 325-428)
chain: PGKDNTAKKNTSNKKNIDDKLTNPQKSGNTHTPDRNKEVLPNGTLNETRKEASPSEGLTIRVKNVNRNASRKISKRLIKEKLKDEEFMKWVNKVETVLNKMFEK
[12]
  binding: binds
